Source: the supplement of paper PMC5662767
Structures can show the parent of a compound that is named as a salt. The list shows a part of the results. Part of the spread comes from offsets between plates or batches.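 A clonal Drosophila S2 line expresses Smoothened bearing circularly permuted GFP in its cytoplasmic tail; Hh-driven phosphorylation opens an inhibitory loop, making it fluoresce. Flow cytometry measured per-cell fluorescence, normalized to Hh-stimulated untreated cells. Hits were inhibitor groups with shared pathway targets that consistently shifted fluorescence, not individual compounds.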

Tested on: Drosophila S2 cl14 SmoIP sensor cells
Assay: normalized SmoIP GFP fluorescence (untreated unstimulated = 0%, untreated Hh-stimulated = 100%); higher = more Smo activation sensor fluorescence
Settings: compound concentration: 15 uM, 24 h
[1] = stimulation: Hh conditioned medium (+Hh)
[2] = stimulation: mock conditioned medium (-Hh)

O=C(c1ccc(Nc2nccc(-c3cc4ccccc4s3)n2)cc1)N1CCC(N2CCCC2)CC1
normalized SmoIP GFP fluorescence [1]: 170% | normalized SmoIP GFP fluorescence [2]: 82.1%

CC(C)(CO)c1cc2cc(NC(=O)C3(c4ccc5c(c4)OC(F)(F)O5)CC3)c(F)cc2n1C[C@@H](O)CO
normalized SmoIP GFP fluorescence [1]: 124% | normalized SmoIP GFP fluorescence [2]: 9.9%

Cc1c(CN2CCN(C(=O)[C@H](C)O)CC2)sc2c(N3CCOCC3)nc(-c3cnc(N)nc3)nc12
normalized SmoIP GFP fluorescence [1]: 57.1% | normalized SmoIP GFP fluorescence [2]: -8.59%

CCN1CCN(Cc2ccc(-c3cc4c(N[C@H](C)c5ccccc5)ncnc4[nH]3)cc2)CC1
normalized SmoIP GFP fluorescence [1]: 190% | normalized SmoIP GFP fluorescence [2]: 66.3%

C[C@H]1c2cccc(O)c2C(=O)C2=C(O)[C@]3(O)C(=O)C(C(N)=O)=C(O)[C@@H](N(C)C)[C@@H]3[C@@H](O)[C@@H]21 [doxycycline-hcl]
normalized SmoIP GFP fluorescence [1]: 130% | normalized SmoIP GFP fluorescence [2]: 7.18%

Cc1cc(C(C)(C)C)c(O)c(C)c1CC1=NCCN1 [Oxymetazoline-hydrochloride]
normalized SmoIP GFP fluorescence [1]: 114% | normalized SmoIP GFP fluorescence [2]: 0.588%

COc1cc2nc(N3CCCN(C)CC3)nc(NC3CCN(Cc4ccccc4)CC3)c2cc1OC
normalized SmoIP GFP fluorescence [1]: 155% | normalized SmoIP GFP fluorescence [2]: 35%

O=C(O)Cc1cccc(OCCCN(Cc2cccc(C(F)(F)F)c2Cl)CC(c2ccccc2)c2ccccc2)c1
normalized SmoIP GFP fluorescence [1]: 126% | normalized SmoIP GFP fluorescence [2]: 75.7%

C[C@]1(c2nc3c(C(N)=O)cccc3[nH]2)CCCN1
normalized SmoIP GFP fluorescence [1]: 135% | normalized SmoIP GFP fluorescence [2]: 9.32%

CN(C)CC(c1ccc(O)cc1)C1(O)CCCCC1 (centres undefined) [desvenlafaxine-succinate]
normalized SmoIP GFP fluorescence [1]: 111% | normalized SmoIP GFP fluorescence [2]: -6.85%

Cc1cn([C@H]2C=C[C@@H](CO)O2)c(=O)[nH]c1=O [Stavudine]
normalized SmoIP GFP fluorescence [1]: 144% | normalized SmoIP GFP fluorescence [2]: 8.46%

OC(CN1CCN(c2cccc(Cl)c2)CC1)C(c1ccccc1)c1ccccc1 (centres undefined)
normalized SmoIP GFP fluorescence [1]: 135% | normalized SmoIP GFP fluorescence [2]: 9.08%
